Measured values from PubChem BioAssay AID540276 (National Center for Advancing Translational Sciences (NCATS), 2011).
Values joined by “and” are separate entries in the source; they are usually repeats but may differ in a detail not shown here. Equal entries are not always repeated. Screen size: about 300,000 compounds; about 5,400 (1.8%) were called active. The shares of active, inactive and inconclusive entries below differ from those in the screen. The call rests on the fitted dose curve; tested in HEK293 cells. Where the call is inconclusive, the potency comes from a doubtful curve fit.

Assay: qHTS for inhibitors of binding or entry into cells for Marburg Virus
Details: Marburg virus pseudotyped entry inhibition, cell reporter; series mostly up to 37.8 µM
Potency means the concentration at half of the fitted maximal effect.

Row | Compound | Potency
1 | O=C(C(=NNc1ccccc1)c1ccccc1)c1ccccc1 | inconclusive: 35.5 µM [inhibitor, single point]
2 | CCCOc1ccc(NC(=O)CC2C(=O)N(Cc3ccccc3)C(=S)N2Cc2cccs2)cc1 (stereo not given) | inconclusive: 29.1 µM [inhibitor, single point]
3 | COc1ccc(NC(=O)c2c(NC(=O)c3cccc(C)c3)sc3c2CCCC3)cc1 | inactive
4 | COC(=O)C1=C(C)Nc2[nH]c(=S)[nH]c(=O)c2C1c1ccc(OC)cc1 (stereo not given) | inconclusive: 0.0073 µM [inhibitor, full curve, poor fit]
5 | COc1cc2nc(SCC(=O)Nc3cccc(C)c3)n3nc(-c4ccccc4)nc3c2cc1OC | inactive
6 | CC1=CC(c2ccccc2)n2nc(NS(=O)(=O)c3ccc(C)cc3)nc2N1 (stereo not given) | inactive
7 | COc1ccc(CNC(=O)C(C)Cc2ccccc2)cc1O (stereo not given) | inconclusive: 1.3 µM [activator, full curve, poor fit]
8 | O=C(NC12CC3CC(CC(C3)C1)C2)c1ccc(-c2ccc(Cl)cc2)o1 | inconclusive: 35.5 µM [inhibitor, single point]
9 | Clc1ccccc1OCc1nnc(-c2ccccc2)o1 | inactive
10 | N#CC1C=Cc2c(ccc3ccccc23)N1C(=O)c1ccccc1 (stereo not given) | inconclusive: 35.5 µM [inhibitor, single point]
11 | COCCn1c(SCC(=O)NCc2ccco2)nnc1C(C)C | inactive
12 | Cc1nc2ccccn2c1C(=O)Nc1ccc(Cl)cc1 | inactive
13 | CC(CCc1ccc(O)cc1)NC1C2CC3CC(C2)CC1C3 (stereo not given) | inconclusive: 10 µM [inhibitor, partial curve, poor fit]
14 | CN(C)/C=N/c1nc(-c2ccc3ccccc3c2)cs1 | inconclusive: 35.5 µM [activator, single point]
15 | O=C(/C=C/c1ccccc1F)c1ccoc1 | inactive
16 | COc1ccccc1CNS(=O)(=O)c1cccc(S(=O)(=O)N2CCOCC2)c1 | inactive and inconclusive: 708 nM [activator, single point]
17 | Oc1c(Br)cc(/C=N/n2c(-c3ccccc3)n[nH]c2=S)cc1Br | inconclusive: 35.5 µM [inhibitor, partial curve, poor fit]
18 | CC(=O)c1ccc(Sc2nnnn2-c2ccccc2)c([N+](=O)[O-])c1 | inconclusive: 29.1 µM [inhibitor, single point]
19 | CC(C)(CN1CCN(c2ccccc2)CC1)NS(=O)(=O)c1ccccc1 | inconclusive: 11.2 µM [inhibitor, single point]
20 | CNC(=S)NNC(=O)c1sccc1OCc1ccc(C)cc1 | inactive
21 | O=C(O)c1ccc2nc(-c3ccco3)c(-c3ccco3)nc2c1 | inconclusive: 2.82 µM [activator, full curve, poor fit]
22 | CC1=C(C(=O)OCc2ccccc2)C(/C=C/c2ccccc2)NC(=S)N1 (stereo not given) | inconclusive: 3.55 µM [inhibitor, partial curve, poor fit]
23 | CC(C)CCNC(=O)C(=O)NC1CCCC1 | inconclusive: 6.31 µM [activator, single point]
24 | COc1ccc(-n2nc(C(=O)O)nc2-c2ccccc2)cc1 | inactive

An excerpt from above in order of number of heavy atoms, rising:
Row | Compound | Potency
9 | Clc1ccccc1OCc1nnc(-c2ccccc2)o1 | inactive
2 | CCCOc1ccc(NC(=O)CC2C(=O)N(Cc3ccccc3)C(=S)N2Cc2cccs2)cc1 (stereo not given) | inconclusive: 29.1 µM [inhibitor, single point]
5 | COc1cc2nc(SCC(=O)Nc3cccc(C)c3)n3nc(-c4ccccc4)nc3c2cc1OC | inactive

(listing goes on)

Row | Compound | Potency
25 | COc1ccc(-c2noc(CSc3nnc(-c4ccncc4)n3-c3ccc(C)c(C)c3)n2)cc1 | inconclusive: 1.26 µM [inhibitor, full curve, poor fit]
26 | Cc1cc(Cl)ccc1OCC(=O)Nc1cccc(S(=O)(=O)NC2=NCCCCC2)c1 | inconclusive: 35.5 µM [inhibitor, single point]
27 | CCN(c1ccccc1)S(=O)(=O)c1ccc(OC)c(NC(=O)c2c(C)noc2C)c1 | inactive
28 | CCCCn1c(=O)c(CCC(=O)OCC(=O)NC(=O)NCCOC)nc2ccccc21 | inconclusive: 3.16 µM [activator, single point]
29 | Cc1ccc(S(=O)(=O)Nc2c(C)cc([N+](=O)[O-])cc2C)cc1 | inactive
30 | COC(=O)[C@@H](Cc1ccccc1)NC(=O)NCCc1ccccc1 | inconclusive: 10 µM [inhibitor, partial curve, poor fit]
31 | CC(=NNC(=O)c1ccncc1)c1ccc(Cl)c(Cl)c1 | inconclusive: 35.5 µM [activator, single point]
32 | C/C(=N\NC(=O)C1CCCN(S(=O)(=O)c2ccccc2)C1)c1ccncc1 (stereo not given) | inconclusive: 22.4 µM [inhibitor, partial curve]
33 | Cc1ccc(-n2ncc3c(=O)[nH]c(SCC(=O)N4CCCC4)nc32)cc1C | inactive
34 | O=C(COC(=O)CC(c1ccccc1)c1ccccc1)Nc1cccc(F)c1 | inconclusive: 3.98 µM [inhibitor, partial curve, poor fit]
35 | COc1ccccc1-n1ccnc(SCC(=O)NCCc2ccccc2)c1=O | inactive
36 | O=c1c2ccccc2nnn1Cc1ccccc1Cl | inactive
37 | COc1ccc(/C=C/C(=O)c2ccc(O)cc2)cc1CN1CCOCC1 | inconclusive: 3.66 µM [inhibitor, partial curve, poor fit]
38 | Cc1cc(C)c2nc(C(F)(F)F)nc(NCCCN3CCOCC3)c2c1 | inconclusive: 23.1 µM [inhibitor, single point]
39 | CCS(=O)(=O)c1ccc2oc(SCC(=O)NCCc3ccc(F)cc3)nc2c1 | inactive
40 | CC(=O)c1cc2c(cc1NC(=O)Cn1nc(-c3ccc(F)cc3)ccc1=O)OCO2 | active: 10 µM
41 | CCn1nnc(NC(=O)c2c(OC)cccc2OC)n1 | inconclusive: 1 µM [inhibitor, single point]
42 | CN1CCN(CCOCCOc2c(Cl)cc(Cl)cc2Cl)CC1 | inconclusive: 28.2 µM [inhibitor, single point]
43 | CNC(=O)c1ccc(NC(=O)COc2ccc(-c3nn(C)c(=O)c4ccccc34)cc2)cc1 | inconclusive: 3.55 µM [inhibitor, single point]
44 | Cc1cc(N)n2nc(-c3ccc(C(C)(C)C)cc3)cc2n1 | inconclusive: 35.5 µM [inhibitor, single point]
45 | COc1ccc(C(C(=O)NC(C)(C)C)N(C(=O)Cn2nnc3ccccc32)c2cccc(C(C)=O)c2)cc1O (stereo not given) | inactive
46 | CCn1ccnc1CC1COc2ccccc2O1 (stereo not given) | inconclusive: 7.3 µM [inhibitor, partial curve, poor fit]
47 | Cc1cccc2cc3c(N)c(C(=O)N4CCCc5ccccc54)sc3nc12 | inconclusive: 7.08 µM [inhibitor, partial curve, poor fit]
48 | O=C(CNC(=S)N(CCCN1CCOCC1)Cc1cccs1)NC1CCCC1 | inconclusive: 7.08 µM [inhibitor, partial curve, poor fit]

Row | Compound | Potency
49 | COC(=O)CSc1nc(N)c2c3c(sc2n1)C(c1ccccc1)SC(c1ccccc1)C3 (stereo not given) | inconclusive: 35.5 µM [inhibitor, partial curve, poor fit]
50 | CC(=O)C1=C(C)OC(N)=C(C#N)C1c1cc2cc(C)c(C)cc2nc1Cl (stereo not given) | inactive
51 | COc1ccc(Cl)cc1S(=O)(=O)N1CCC(C(=O)NCCc2ccccc2)CC1 | inconclusive: 3.55 µM [inhibitor, single point]
52 | Cc1cccc(CN2CCN(C(=O)c3cccc4ccccc34)CC2)c1 | inconclusive: 1.12 µM [inhibitor, full curve]
53 | O=C(OC(C(=O)NCc1ccc2c(c1)OCO2)c1ccc(Cl)cc1)c1ccco1 (stereo not given) | inconclusive: 5.62 µM [inhibitor, single point]
54 | Cn1cc(/C=C2\SC(=O)N(c3ccccc3)C2=O)c2ccccc21 | inconclusive: 1.78 µM [activator, partial curve]
55 | O=C(COC(=O)c1cc(Br)c(Br)s1)NCCC1=CCCCC1 | inconclusive: 0.562 µM [inhibitor, full curve, poor fit]
56 | O=C(O)Cn1nnnc1-c1ccc(F)cc1 | inconclusive: 8.2 µM [activator, partial curve]
57 | CC1([N+](=O)[O-])COP(=O)(Nc2cccc(Br)c2)OC1 (stereo not given) | inconclusive: 1.26 µM [activator, single point]
58 | CC(C)c1nc(SCC(=O)N2CCCC2)c2ccccc2n1 | inactive
59 | N#Cc1nc(COc2ccc(Br)cc2)oc1N1CCN(Cc2ccccc2)CC1 | inactive
60 | FC(F)(F)c1cc(-c2cccs2)nc(-n2cc(Br)cn2)n1 | inactive
61 | CCN(CC)CCCn1c2c(c(SCC(=O)Nc3nccs3)nc1=O)CCC2 | inconclusive: 12.6 µM [inhibitor, partial curve, poor fit]
62 | Cc1cc(C(=O)NNC(=S)NC(C)c2ccccc2)c2ccccc2n1 (stereo not given) | inactive
63 | CCOc1ccc2ccccc2c1C(=O)N1CCN(c2ccccc2)CC1 | inconclusive: 5.8 µM [inhibitor, full curve]
64 | Cc1ccc(-n2c(-c3ccccc3)c[n+]3c2CCc2ccccc2-3)c(C)c1 | inconclusive: 4.47 µM [inhibitor, full curve, poor fit]
65 | Nc1cccc(-c2nc3ccc(N)cc3s2)c1 | active: 11.2 µM
66 | CCOC(=O)CN(C(=O)CSc1nnc(COc2ccc(OC)cc2)n1C)c1ccccc1 | inactive
67 | CCOC(=O)c1c(C)[nH]c(C)c1C(=O)COC(=O)[C@@H](NC(=O)c1ccccc1OCC)C(C)C | inconclusive: 7.3 µM [inhibitor, single point]
68 | Cc1cc(C)n(-c2ccc(NC(=O)C3CCN(Cc4cnc(C)s4)CC3)cc2)n1 | inactive
69 | COc1ccc(/C=N/NC(=O)c2cc(-c3ccccc3)nc3ccccc23)cc1O | active: 12.6 µM
70 | Cn1c(=O)oc2cc(S(=O)(=O)N3CCC(C(=O)N4CCN(c5cccc(Cl)c5)CC4)CC3)ccc21 | inconclusive: 35.5 µM [inhibitor, single point]

Reprinted from the listing (3 entries):
Row | Compound | Potency
65 | Nc1cccc(-c2nc3ccc(N)cc3s2)c1 | active: 11.2 µM
66 | CCOC(=O)CN(C(=O)CSc1nnc(COc2ccc(OC)cc2)n1C)c1ccccc1 | inactive
67 | CCOC(=O)c1c(C)[nH]c(C)c1C(=O)COC(=O)[C@@H](NC(=O)c1ccccc1OCC)C(C)C | inconclusive: 7.3 µM [inhibitor, single point]
